{"source": "paper PMC7819943", "about": "“Rice protein-binding microarrays: a tool to detect cis-acting elements near promoter regions in rice”", "note": "Some of the results follow."}
{"target": "T1, OsSMF1 (Oryza sativa, UniProt Q6ZLB0 1-436)", "T1 sequence": "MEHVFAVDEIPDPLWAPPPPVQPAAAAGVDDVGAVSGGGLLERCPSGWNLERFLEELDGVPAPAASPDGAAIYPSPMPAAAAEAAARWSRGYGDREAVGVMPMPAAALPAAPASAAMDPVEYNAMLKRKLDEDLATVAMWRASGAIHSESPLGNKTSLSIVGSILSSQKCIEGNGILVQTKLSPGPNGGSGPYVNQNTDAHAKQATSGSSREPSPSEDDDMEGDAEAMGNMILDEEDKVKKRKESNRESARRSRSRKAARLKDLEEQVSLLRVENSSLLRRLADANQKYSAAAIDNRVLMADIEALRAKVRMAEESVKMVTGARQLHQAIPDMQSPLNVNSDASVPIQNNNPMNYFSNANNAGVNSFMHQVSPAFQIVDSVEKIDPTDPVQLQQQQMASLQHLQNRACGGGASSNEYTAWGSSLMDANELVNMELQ", "experiment": "protein-binding microarray (RPBM); PBS, 2% BSA, 51.3 ng/ul salmon testes DNA, 50 uM zinc acetate, 200 nM TF, 25 C, 1 h; high values mean tight binding", "conditions": "protein: recombinant; tags: N-terminal polyhistidine and DsRed monomer fusion (pET32a); chain copies: 2; label: CyDye5-dUTP incorporated in the synthesized complementary strand; 3' TTTTT single-stranded linker to array surface; dsDNA, one strand shown", "outline": "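An Axon 4000B scanner gave the binding signal as per-feature fluorescence intensity in arbitrary units. This followed washing of a custom Agilent array that had been incubated for 1 h at 25 °C with 200 nM protein in PBS, 2% BSA, salmon testes DNA and 50 µM zinc acetate. The proteins were transcription factors fused at the N-terminus to polyhistidine and DsRed, expressed in E. coli BL21-CodonPlus and purified on Ni–NTA.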"}
{"sequence": "TGAGTCAAGCGTGTGATGTCACCTGTTGCTGTGGACACAACGGAGTCACCTAGTGCAG", "binding signal": "14500 fluorescence intensity (a.u.)"}
{"sequence": "TTTCTCGACGTCCTCTGCCTCGTTTTCTTTGCCGATGATGCGGAGTCACCTAGTGCAG", "binding signal": "3220 fluorescence intensity (a.u.)"}
{"sequence": "CCTCTCGCCGTCGCCGGCGCCACCGCGACATGCCTCCTCTCGGAGTCACCTAGTGCAG", "binding signal": "4430 fluorescence intensity (a.u.)"}
{"sequence": "GCTTCAAAGTAAGTGTGTGCGTGTAGATGAGTGGACTTGTCGGAGTCACCTAGTGCAG", "binding signal": "4940 fluorescence intensity (a.u.)"}
{"sequence": "GAAGGGTCATCGTGACCTTTCTAAGATCTTGCGTCAACTTCGGAGTCACCTAGTGCAG", "binding signal": "3310 fluorescence intensity (a.u.)"}
{"sequence": "GTGTTTGATATTTGGAGTTCCATCTCGCCAATTCTACTGACGGAGTCACCTAGTGCAG", "binding signal": "4180 fluorescence intensity (a.u.)"}
{"sequence": "CCGCCCCACGCGGCGCCACCACACCACCGCGCGCGTCGCTCGGAGTCACCTAGTGCAG", "binding signal": "5900 fluorescence intensity (a.u.)"}
{"sequence": "TGCATTATTGGTGATATGTGACGCATGACGCATGGCTACACGGAGTCACCTAGTGCAG", "binding signal": "7640 fluorescence intensity (a.u.)"}
{"sequence": "TGCCAAAGCTTCTGTGTTATTTGCTGGAATTGTCACCCAACGGAGTCACCTAGTGCAG", "binding signal": "3240 fluorescence intensity (a.u.)"}
{"sequence": "GCTAAATAAACTCGTCTGAGCACATGTGGCCCGATGTGTCCGGAGTCACCTAGTGCAG", "binding signal": "3440 fluorescence intensity (a.u.)"}
{"sequence": "TCCCACTCGATTTGGGAGAAAATACAGGGATTAAACTCTGCGGAGTCACCTAGTGCAG", "binding signal": "3550 fluorescence intensity (a.u.)"}
{"sequence": "CTTGCTTGCTTACGTCTCTCTCGCACACTCCCACTATTCTCGGAGTCACCTAGTGCAG", "binding signal": "3330 fluorescence intensity (a.u.)"}
{"sequence": "TAGAAACGTGCGAGTACGTGGAGGTTTTCCTTAACCTATCCGGAGTCACCTAGTGCAG", "binding signal": "4920 fluorescence intensity (a.u.)"}
{"sequence": "AATCTAACATGGATTTGCGCACACACTTGTCGTAACGTACCGGAGTCACCTAGTGCAG", "binding signal": "3460 fluorescence intensity (a.u.)"}
{"sequence": "TTTCTTAATCTACTCCATGCTGACTGGCTCCTAGGTTCAACGGAGTCACCTAGTGCAG", "binding signal": "5330 fluorescence intensity (a.u.)"}
{"sequence": "ATTAGGTGTTTCCAGTTAATTAAAGTCATGTAGTACGGATCGGAGTCACCTAGTGCAG", "binding signal": "3620 fluorescence intensity (a.u.)"}
{"sequence": "TCTAGTGCACACAGTAACGTGGAATCTCATCACGATCATTCGGAGTCACCTAGTGCAG", "binding signal": "3780 fluorescence intensity (a.u.)"}
{"sequence": "TGATACGAGCAGCGGCCGTCGGTGTCAGCGAACAGAGCGCCGGAGTCACCTAGTGCAG", "binding signal": "3240 fluorescence intensity (a.u.)"}
{"sequence": "TGCTGCCAGAGTCAGTAGGTGCCCTCTTCCACCTGCAGACCGGAGTCACCTAGTGCAG", "binding signal": "3270 fluorescence intensity (a.u.)"}
{"sequence": "GGCATCTCTTTCTTTCGCGTTTTCTCTTCCGCCAGATAGGCGGAGTCACCTAGTGCAG", "binding signal": "3330 fluorescence intensity (a.u.)"}
{"sequence": "TCTCCTATCTTACGAGACAAGAACACCAGCTGTCATGTGTCGGAGTCACCTAGTGCAG", "binding signal": "4740 fluorescence intensity (a.u.)"}
{"sequence": "ATCACTGAGGTATACAGGTAGCTAGCTAGCAAATTAAGTACGGAGTCACCTAGTGCAG", "binding signal": "4070 fluorescence intensity (a.u.)"}
{"sequence": "CTGGCGCTGAGTTTCCCACAGTCAGCGCCATTATGGCTGGCGGAGTCACCTAGTGCAG", "binding signal": "5750 fluorescence intensity (a.u.)"}
{"sequence": "CGCTTTTGTGTGGGAGAGGTTCGAACGTGTCCGGAATTTTCGGAGTCACCTAGTGCAG", "binding signal": "3460 fluorescence intensity (a.u.)"}
{"sequence": "ACATTTTACACCGTAAAACGGAGGAATTACCTGCGACTTTCGGAGTCACCTAGTGCAG", "binding signal": "25500 fluorescence intensity (a.u.)"}
{"sequence": "CTCACCGGCGTCAGCGTGCATCCATGGACACGAGCTCTTCCGGAGTCACCTAGTGCAG", "binding signal": "3740 fluorescence intensity (a.u.)"}
{"sequence": "CATTATGATCTGTCCACTCTTATTATAATTTTCATGAATGCGGAGTCACCTAGTGCAG", "binding signal": "3950 fluorescence intensity (a.u.)"}
{"sequence": "CTTGTCGCACTCGGGCTCCATCCACGTGGTGACGAAGGACCGGAGTCACCTAGTGCAG", "binding signal": "8950 fluorescence intensity (a.u.)"}
{"sequence": "GTTAGTTGTCACTGAACCCTACATTGTCATTTTCTTTTCACGGAGTCACCTAGTGCAG", "binding signal": "22700 fluorescence intensity (a.u.)"}
{"sequence": "CGCACTCAGCTTGTTCCTCTAACTGTACACAGTGGTACTTCGGAGTCACCTAGTGCAG", "binding signal": "26500 fluorescence intensity (a.u.)"}
{"sequence": "ATCTCGCGCTTCACACGCAACGCAAGAACTCGACGAGGCGCGGAGTCACCTAGTGCAG", "binding signal": "3370 fluorescence intensity (a.u.)"}
{"sequence": "CATCGTGCAGGTGCCCAGGCTGATGCTGCACCTGGACAAGCGGAGTCACCTAGTGCAG", "binding signal": "3450 fluorescence intensity (a.u.)"}
{"sequence": "ATGCACAATGCTAATGTACAACAGCATAACACTGTCACCCCGGAGTCACCTAGTGCAG", "binding signal": "3230 fluorescence intensity (a.u.)"}
{"sequence": "GTGGCCGGCGTCCCCTCGAGCGGCGCTCTCCTCCACCTCCCGGAGTCACCTAGTGCAG", "binding signal": "28700 fluorescence intensity (a.u.)"}
{"sequence": "GCCCACCGGCCCAACGGCTCGCTCCACCTGCACACGTGTCCGGAGTCACCTAGTGCAG", "binding signal": "11700 fluorescence intensity (a.u.)"}
{"sequence": "GTGAGGTTGGAATATTCTAGTTGCATGGCGTCATTTCACACGGAGTCACCTAGTGCAG", "binding signal": "4340 fluorescence intensity (a.u.)"}
{"sequence": "ATTGATCACTCGGACGTCACCAAACGATCGATAAACTCGTCGGAGTCACCTAGTGCAG", "binding signal": "5630 fluorescence intensity (a.u.)"}
{"sequence": "CATGTGTTGTGTCCATGTCCTATGTGGCTATGTGTATATACGGAGTCACCTAGTGCAG", "binding signal": "3280 fluorescence intensity (a.u.)"}
{"sequence": "TAGGGGTAGGGTTTGCGTGCGCGTGCATTGTGAGTGTCTGCGGAGTCACCTAGTGCAG", "binding signal": "3980 fluorescence intensity (a.u.)"}
{"sequence": "GCCGATACAGACAACGAGACAAGCCGCCGTCGCGTATCTCCGGAGTCACCTAGTGCAG", "binding signal": "24100 fluorescence intensity (a.u.)"}
{"sequence": "CCTTCATATGCGCGCACCGCTCCTCCCGTTGTTTCCATCGCGGAGTCACCTAGTGCAG", "binding signal": "3240 fluorescence intensity (a.u.)"}
{"sequence": "CCACACACAACCGATCGATATTTGCCCCGTCACACACAGCCGGAGTCACCTAGTGCAG", "binding signal": "3810 fluorescence intensity (a.u.)"}
